About 1,400 (4.5%) of roughly 31,000 sequences were called active.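 Rule for the calls: active = median seed-adjusted z-score above 1 or below -1; inactive = the rest.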 This is one part of the list.

This assay is described as follows: Novel Modifiers of Survival Motor Neuron (SMN) Protein: Gene Identification via Genome-wide siRNA Screen.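 Note: luminescence tracks full-length SMN protein made from the SMN2 reporter.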 Conditions: HEK293T SMN2-luciferase reporter, siRNA knockdown, 72 h; actives lie on both sides. Put shortly: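 siRNA screen, 10418 genes ×3 siRNAs; 1 pmol/well, lipid reverse transfection into HEK293T SMN2-luc reporter line. 72 h, 37 °C, 5% CO2; ONE-Glo readout. Data: neg-ctrl normalized, log10, MAD; hit = MAD >1.0 or < -1.0.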
(In general: In a reporter assay the amount or activity of a reporter protein is the signal.)
For the sequence GCUUCUUGCCCGACCUCAATT against KCNC3, the median seed-adjusted z-score is inactive: 0.279.

For the sequence CCUAUGAUCCAACACCAUATT against GMPPA, the median seed-adjusted z-score was inactive: 0.619. With CCUCAGUGGUUUAACAGGATT against KCNK18 the figure was inactive: 0.115. Turning to GACCUUCAGUGCCCAAGUATT against COL9A3, the median seed-adjusted z-score is inactive: 0.16. As for GAGAUAUCAUAUGAGAUCATT against BAZ2A, the median seed-adjusted z-score is inactive: 0.73. For the sequence ACUUUGUCCGUGUGUCUUATT against SLC30A3, the median seed-adjusted z-score was active: -1.26.

On to GGUUGCAUUGAUGAAAUUATT against ZFAND1, for which the median seed-adjusted z-score was inactive: -0.272. In the case of CGCGCAAUGUGACCGUGAATT against MAG it was inactive: -0.0667. Consider GCGAAGCUCUUUAGAGGAATT against IKZF1, for which the median seed-adjusted z-score is inactive: -0.298. With CAAUGCAUUGUAUUCAGAATT against PRKY the figure was inactive: 0.168. Turning to GAACAUUGAGUCGACAAUUTT against STX5, the median seed-adjusted z-score was inactive: 0.108. In the case of GAUGCUGCCUCUCAACUUATT against MAT2B it was inactive: -0.554.

As to GCUAGAACGGGAACGAAGATT against NEK10, the median seed-adjusted z-score was inactive: -0.0464.

As to GAUUUGCUGUUCGACAAGATT against IMPA2, the median seed-adjusted z-score is inactive: 0.0513. Regarding GCACCUAUGUCUCAGCUAATT against LTBR, the median seed-adjusted z-score was inactive: 0.

On to CCAACAUGCCUGCCUCAUUTT against PNMT, for which the median seed-adjusted z-score is inactive: -0.559. Take GCCUUUGGACAACUAUUUUTT against TPK1: the median seed-adjusted z-score is inactive: 0.521.

Regarding GGCUAUGCAUGUUUAAAGATT against GNG2, the median seed-adjusted z-score was inactive: 0.369. In the case of ACUGUAUGGAGUUCCAGAATT against SLC6A13, the median seed-adjusted z-score is inactive: 0.267.

For CCACUGUCUGUAUCAGUAUTT against ARGFX, the median seed-adjusted z-score was inactive: 0.273. For GGUAUAUACUAGAAAACCATT against RFPL4B, the median seed-adjusted z-score was inactive: 0.92.

On to GAGCUCUCAUGGAAUGUCATT against DBH, for which the median seed-adjusted z-score was inactive: 0.337. With GCAUGAUCAUGCUGAUUAUTT against GSR the figure was inactive: -0.467. For AAACCGAGAUGCCUCUACATT against HMGN4, the median seed-adjusted z-score is inactive: -0.0471. In the case of GGAUUACAGGAGACCCAUATT against FUBP1, the median seed-adjusted z-score is active: -1.52. In the case of GGAGUUUGCAUGGACAAUATT against WISP1 it was inactive: -0.0121; in that of GAAGGGACCUUAUUCGUAUTT against DCP1A, inactive: 0.361. Consider CCUACCAUCUUGUCCCUAATT against SLC7A6, for which the median seed-adjusted z-score is inactive: -0.0877.

Regarding CAAUGGUAGAUAUGACGAUTT against USP34, the median seed-adjusted z-score is inactive: 0.0665. On to GGAUUUCAACCUAGCAAAATT against ZNF454, for which the median seed-adjusted z-score is inactive: 0. Consider GGCCCAGUCCAAAUGGUUUTT against GAS7, for which the median seed-adjusted z-score is inactive: 0.335.

Consider GCACUGAUUUCCUAUUUGATT against NDST2, for which the median seed-adjusted z-score was inactive: -0.0582. In the case of GGCUCAGUGCUAUGGAGAATT against MPZ, the median seed-adjusted z-score was inactive: 0.337. In the case of UACCAGAAGUUCUUCGAUATT against ST6GAL1, the median seed-adjusted z-score was inactive: -0.14. In the case of GCUCAUUGGUACAAUGUCATT against POLE, the median seed-adjusted z-score is active: -1.55. For the sequence CGGGCAGUAACUAACCAUATT against DCXR, the median seed-adjusted z-score is inactive: -0.394.

In the case of CCCAGAAGAUGACCACUCATT against PDXDC1, the median seed-adjusted z-score was inactive: 0.665.

As to CAACUUCCCGAAUCAGGAATT against CA6, the median seed-adjusted z-score is inactive: 0.349. As to GGAGCAAUUUUACGAACUATT against ZC3H7A, the median seed-adjusted z-score is inactive: 0.208. On to GCUGCAACCAGAGCAUGAATT against ZNF513, for which the median seed-adjusted z-score was inactive: -0.0616.

Consider GGCAUGAAAUGGGUAGAUATT against DOCK7, for which the median seed-adjusted z-score was inactive: 0.23. On to GUUAUGCAAUGAGUACUGATT against BIRC2, for which the median seed-adjusted z-score is inactive: 0.336.

Turning to GAAAGGAUAUGUUACUCCUTT against CTSK, the median seed-adjusted z-score was inactive: 0.0972.

For GGACAACAGUCAGUCAAAUTT against ANP32D, the median seed-adjusted z-score is inactive: -0.714.

On to GUCUAUUCUAUUUAUCCUATT against AP4E1, for which the median seed-adjusted z-score is inactive: 0. With GCAUCAUGGUCAAGACUUUTT against UBE2O, the median seed-adjusted z-score is inactive: 0.125.

For the sequence AGAACUUACUCAUGGGCAATT against GRAP2, the median seed-adjusted z-score was inactive: 0.296. In the case of GAGUGUUUGUGAAUUGCAATT against CD3D it was inactive: -0.403. For the sequence AGUGAACGGCUGGUCGUUATT against ZDHHC11, the median seed-adjusted z-score is inactive: -0.098. In the case of GAUACGGAAUGGUCAAACATT against VRK1 it was inactive: -0.148.

With GCAUCGUCAGAGAAACCCATT against ST6GAL2, the median seed-adjusted z-score is inactive: 0.054. With CCGUAUUGCUAAACCUACATT against SLC44A5, the median seed-adjusted z-score is inactive: 0.179.

As for CCACGAGAUUUCACAAACATT against PRKD3, the median seed-adjusted z-score is inactive: -0.906. In the case of AGACGACCUUUGAUGUCUATT against CEL it was inactive: 0; in that of GGUUUAUGGUGAUUGCAUUTT against ASPH, inactive: 0.0199.

Take CUGUGAAUCUGCAACAAGATT against PGM3: the median seed-adjusted z-score was inactive: -0.527. In the case of GGAAAGCAACAUACAGACATT against FABP6 it was inactive: 0.122; in that of GUCUAUUACUAUAUGCGCATT against SMG6, inactive: -0.265; in that of GUGACCAACCCAAAACGUATT against ENO2, inactive: 0.418. For GUAUGUUGAUCCAUCAAGATT against USP25, the median seed-adjusted z-score was inactive: 0.0461. As for GGUUCCAUCUUACUUGUCATT against M6PR, the median seed-adjusted z-score was inactive: -0.879. For the sequence GAAGCAUAUUGUUAUUAUATT against CCL7, the median seed-adjusted z-score is inactive: 0.23. As to GGAUCUGACAACAAACUGATT against AP3S1, the median seed-adjusted z-score was inactive: 0.787. In the case of AGAUGACAGACCAAAGUUATT against CYB5A it was inactive: 0.226; in that of GAUCAAGACUCUGCGCCUATT against HAND1, inactive: 0.161. For the sequence CCUACAAGGUUACUCACUATT against NAMPT, the median seed-adjusted z-score is inactive: 0. With GCAUGAAAGAGGACCAGAATT against KCNK1, the median seed-adjusted z-score is inactive: 0.124. As for CACUCUCACUUAUUAAAGATT against PGCP, the median seed-adjusted z-score was inactive: 0.145. On to GGAGGAAGGUCUCAACGUATT against TCFL5, for which the median seed-adjusted z-score was active: 1.52. Regarding CUAUCGUGAUGCUAACAGATT against PTPRA, the median seed-adjusted z-score was inactive: -0.438. With GAACGGAUCAGAUGUCUAUTT against PGK1, the median seed-adjusted z-score is inactive: -0.0196. With CCAUCGUAGGGAUCAUAGUTT against TNFRSF10C, the median seed-adjusted z-score is inactive: 0. As for GCCCUAUUGUUACUGUUGATT against SMAD4, the median seed-adjusted z-score was inactive: 0.0746.

As to ACAGUGACGUGAAAGUCUATT against LIMS3, the median seed-adjusted z-score is inactive: -0.078.

For GGACAGCAAUGUCACACUUTT against COL16A1, the median seed-adjusted z-score was inactive: -0.0496. For CCAACUGAUUUAGAGAUGATT against MED4, the median seed-adjusted z-score is inactive: -0.632. For the sequence AGAUGAACCGGGUCAUCAATT against ATP1B2, the median seed-adjusted z-score was inactive: -0.185. GCCCUCAUGCUGUAAAGAATT against CCL25: the median seed-adjusted z-score is inactive: 0.0698. GCUACUUGUUUCUUCUGGATT against TBX6: the median seed-adjusted z-score is inactive: 0.144. With CAGCUAAGGUGAUAGCGGATT against DPYS, the median seed-adjusted z-score is inactive: -0.288. On to CCUUUGAUCAUUCACCAAATT against PTPN2, for which the median seed-adjusted z-score is inactive: 0.302. For GGUAGUUCCUGACCAUUAUTT against ADAMTSL3, the median seed-adjusted z-score was inactive: -0.0419. As for GGGUCCUGUUCAUAAAGGATT against KCTD10, the median seed-adjusted z-score was inactive: -0.506. As for UGUGGAGAAUGACUACAUATT against SPRY4, the median seed-adjusted z-score is active: -1.23. CAUCCGAUUUAAUAGUGUUTT against TARDBP: the median seed-adjusted z-score is inactive: 0.987.

Consider GCUGGUUUAUUUAACUCGATT against E2F6, for which the median seed-adjusted z-score is inactive: -0.299. GGAGUUCCUGAGUACCCAATT against PTPRF: the median seed-adjusted z-score is inactive: 0.413. In the case of GUUCGAAUCAAGAACCCUATT against NT5C3 it was inactive: -0.456; in that of GGAUUUAAGUUGCUCUGGATT against SLC11A2, inactive: -0.157. For the sequence GCACCGUAUUUGUGAUUGATT against CDH24, the median seed-adjusted z-score was inactive: 0.31. On to CCUUGGUCUGAACACGAAATT against BIRC6, for which the median seed-adjusted z-score was inactive: 0.0785.

GUCGGGUCCUCACAAUUCATT against PUS1: the median seed-adjusted z-score is inactive: -0.308.

Consider GCUAUGAUGUUUCGACAGATT against RAPGEF6, for which the median seed-adjusted z-score was inactive: -0.186. On to GUGCAUCGAUUUAAGCAGATT against RIMS1, for which the median seed-adjusted z-score was inactive: 0.

With GGUAUAAUCAGAAAACGGATT against ATP11A, the median seed-adjusted z-score is inactive: 0.158. As to GGAGGAUCUUGUACCCAGATT against PNKP, the median seed-adjusted z-score was inactive: -0.0563. For UGCACAUCAAGUAUCCUAATT against SLC30A10, the median seed-adjusted z-score is inactive: 0.523. In the case of GCAUUGACUUGGGUGAAGATT against GPR101 it was inactive: -0.265; in that of GGGAAAUUCUACUCCAGUATT against CACNB2, inactive: 0. For the sequence GGAAAUCACUACAUCCUGATT against IVD, the median seed-adjusted z-score was inactive: -0.147. With AGCCUUUCAUGAUUAUAGUTT against SSBP3, the median seed-adjusted z-score was inactive: 0.00592.

In the case of GGUAAAUACCAGCUACUAATT against BBS10, the median seed-adjusted z-score was inactive: 0.298.

Take AGACUAUGAUAGAAUCCCATT against LGI3: the median seed-adjusted z-score is inactive: -0.0189. Consider GAUUCGCAGUUUAGAUGUUTT against PRKAA2, for which the median seed-adjusted z-score was inactive: -0.194. Regarding CCGUGGAGCUUGUUGAUGATT against POP7, the median seed-adjusted z-score is inactive: 0.114. With CAGUUGACCAGAUCACAGATT against ARR3, the median seed-adjusted z-score is inactive: -0.0936. With CAGUUAUGUUCUACGCAGATT against KCND2 the figure was inactive: -0.245. Turning to ACAGCUAUAUGGACGAGAATT against FLI1, the median seed-adjusted z-score is inactive: 0.255.

Source of the values: PubChem BioAssay AID1347426 (Functional Genomics Laboratory (NCATS/FGL), 2020).
